# Inconclusive results, whose numbers are uncertain, are shown with a selection of clear calls. For some of these results: Potencies beside an inconclusive call are fits to weak or partial responses and may not hold up. The source made the active and inactive calls. Unless noted, calls come from the whole dose curve; as a rule, active = well fitted curve in the direction sought with a large enough effect; inconclusive = small, poorly fitted or top-dose-only effect, or another doubt; inactive = no such curve, though single readings can be large; an effect the other way counts as inactive or inconclusive.
# The chains behind the UniProt entries cited, without tags or fusion partners. Where a name states a change or a piece, a line headed by the entry shows the natural chain unless it says otherwise.
# UniProt P33261, whole entry, looked up: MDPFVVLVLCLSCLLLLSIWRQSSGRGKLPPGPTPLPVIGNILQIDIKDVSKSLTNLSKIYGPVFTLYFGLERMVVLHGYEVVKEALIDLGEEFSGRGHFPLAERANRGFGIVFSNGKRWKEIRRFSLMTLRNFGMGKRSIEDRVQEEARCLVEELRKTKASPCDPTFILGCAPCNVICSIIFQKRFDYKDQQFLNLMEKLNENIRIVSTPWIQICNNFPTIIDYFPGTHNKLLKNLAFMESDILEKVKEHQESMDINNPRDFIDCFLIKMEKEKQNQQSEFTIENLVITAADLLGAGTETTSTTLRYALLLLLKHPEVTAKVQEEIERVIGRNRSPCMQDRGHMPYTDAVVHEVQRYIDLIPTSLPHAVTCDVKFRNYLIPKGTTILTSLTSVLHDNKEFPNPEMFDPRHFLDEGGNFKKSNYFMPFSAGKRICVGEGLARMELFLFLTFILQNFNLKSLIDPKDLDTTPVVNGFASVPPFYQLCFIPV
# UniProt O75469: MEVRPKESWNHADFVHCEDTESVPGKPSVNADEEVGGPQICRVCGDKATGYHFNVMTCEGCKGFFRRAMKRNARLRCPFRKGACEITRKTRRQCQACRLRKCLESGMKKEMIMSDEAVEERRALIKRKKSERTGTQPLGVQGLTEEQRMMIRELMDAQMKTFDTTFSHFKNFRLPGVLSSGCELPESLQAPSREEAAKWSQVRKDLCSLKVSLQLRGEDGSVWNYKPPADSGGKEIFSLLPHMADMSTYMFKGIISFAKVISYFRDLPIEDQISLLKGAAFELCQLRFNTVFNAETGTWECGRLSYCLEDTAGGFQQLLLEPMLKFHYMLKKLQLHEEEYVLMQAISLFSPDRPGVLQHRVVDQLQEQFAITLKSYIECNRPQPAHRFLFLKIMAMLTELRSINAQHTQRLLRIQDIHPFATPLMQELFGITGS
# How the values were obtained:
# [1] = Quantitative High-Throughput drug screen in 47 multiple myeloma cell lines against the NCATS MIPE library collection: VP6_DJ cell viability assay (AID 1919867); note: nearly all actives have a fitted effect of over 40% in size; note: potency is the fitted concentration of half-maximal effect
# Procedure, shortened: (§1)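 ATP-based luminescence (CellTiter-Glo, 5 min RT incubation) quantified surviving cells following two days' treatment with MIPE 4.0 agents at 37 °C, 5% CO2.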
# [2] = Quantitative High-Throughput drug screen in 47 multiple myeloma cell lines against the NCATS MIPE library collection: UTMC2_PLB cell viability assay (AID 1919868); conditions: CellTiter-Glo ATP luminescence, 48 h; viability (% of DMSO control): at 45.8 µM (top of the series); note: nearly all actives have a fitted effect of over 55% in size; note: potency is the fitted concentration of half-maximal effect
# Procedure, shortened: as §1
# [3] = Quantitative High-Throughput drug screen in 47 multiple myeloma cell lines against the NCATS MIPE library collection: PCM6_Riken cell viability assay (AID 1919870); note: nearly all actives have a fitted effect of over 30% in size; note: potency is the fitted concentration of half-maximal effect
# Procedure, shortened: as §1
# [4] = Quantitative High-Throughput drug screen in 47 multiple myeloma cell lines against the NCATS MIPE library collection: OPM2_DSMZ cell viability assay (AID 1919872); note: nearly all actives have a fitted effect of over 30% in size; note: potency is the fitted concentration of half-maximal effect
# Procedure, shortened: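 CellTiter-Glo luminescence (ATP) after 48 h compound exposure, 37C/5% CO2; 500 cells/well; MIPE 4.0 approved/investigational drugs pinned in; DMSO = 100%, media only = 0% viability.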
# [5] = qHTS for identification of novel therapeutic agents for treatment of microphthalmiaassociated transcription factor (MiT) renal cell carcinoma (RCC) (AID 1963991; calls by dose curve; note: potency is the fitted concentration of half-maximal effect); conditions: TFE3-RCC UOK109 viability, CellTiter-Glo, 48 h; active = Z-AUC below -0.8 in all three lines
# Procedure, shortened: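 Three TFE3-fusion RCC cell lines (UOK109, UOK124, UOK145), 500 cells/well, were exposed to the 1912-compound MIPE 4.0 library for 48 hours at 37 C. Viability was read by CellTiter-Glo luminescence, normalised to DMSO (100%) and empty wells (0%), with 11-concentration curve fits.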
# [6] = Quantitative High-Throughput drug screen in 47 multiple myeloma cell lines against the NCATS MIPE library collection: KMS28BM_JCRB cell viability assay (AID 1919874); conditions: CellTiter-Glo ATP, 48 h; viability, % of control: at 45.8 µM (top of the series); note: nearly all actives have a fitted effect of over 35% in size; note: potency is the fitted concentration of half-maximal effect
# Procedure, shortened: as §1
# [7] = Quantitative High-Throughput drug screen in 47 multiple myeloma cell lines against the NCATS MIPE library collection: KMS11_JCRBsus cell viability assay (AID 1919873); note: nearly all actives have a fitted effect of over 50% in size; note: potency is the fitted concentration of half-maximal effect
# Procedure, shortened: as §1
# [8] = Quantitative High-Throughput drug screen in 47 multiple myeloma cell lines against the NCATS MIPE library collection: PE2_PLB cell viability assay (AID 1919869); conditions: PE2_PLB myeloma cells viability, ATP luminescence, 48 h; viability (% of control): at 45.8 µM (top of the series); note: potency is the fitted concentration of half-maximal effect; nearly all actives have a fitted effect of over 35% in size
# Procedure, shortened: as §1
# [9] = Quantitative High-Throughput drug screen in 47 multiple myeloma cell lines against the NCATS MIPE library collection: RPMI8226_ATCC cell viability assay (AID 1919871); conditions: RPMI8226 myeloma viability, CellTiter-Glo ATP luminescence, 48 h; viability (% of control): at 45.8 µM (top of the series); note: potency is the fitted concentration of half-maximal effect; nearly all actives have a fitted effect of over 30% in size
# Procedure, shortened: as §1
# [10] = test system: 3D7; assay: qHTS profiling for inhibitors of Plasmodium falciparum proliferation (AID 504749); note: potency is the fitted concentration of half-maximal effect; nearly all actives have a fitted effect of over 60% in size; conditions: P. falciparum in erythrocytes, SYBR Green DNA, 72 h; series mostly up to 28.7 µM
# Procedure, shortened: (§2)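 In a 72 h erythrocytic culture (37 C, humidified, 5% CO2) at 2.5% hematocrit and 0.3% starting parasitemia, compounds were tested; SYBR Green I in detergent lysis buffer stained parasite DNA overnight.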
# [11] = test system: 7G8; assay: as above; conditions: P. falciparum in erythrocytes, SYBR Green DNA, 72 h; series mostly up to 28.7 µM
# Procedure, shortened: as §2
# [12] = target: Cytochrome P450 2C19 (Homo sapiens) (UniProt P33261); assay: qHTS for inhibitors of CYP2C19 against the NCATS DSHEA and TCM libraries (AID 1919974); conditions: CYP2C19 enzyme inhibition, luminescence qHTS;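 note: luminescence from luciferin released by CYP2C19 oxidation of a pro-luciferin substrate; potency is the fitted concentration of half-maximal effect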
# Procedure, shortened: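 Substances were tested against enzyme with a pro-luciferin substrate; minus-enzyme wells served as background. After NADPH-initiated oxidation (30-45 min, RT), light was generated with P450-Glo reagent.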
# [13] = KB-8-5-11 P-gp reporter qHTS against the NCATS DSHEA and TCM libraries (AID 1919977); conditions: KB-8-5-11 cells; at 26.1 µM (top of the series); note: 0% is about no effect
# Procedure, shortened: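 P-gp-overexpressing KB-8-5-11 cells (500/well) were plated in colchicine-free DMEM with 10% FBS, attached ~4 h, then exposed to substance titrations for ~72 h at 37C. Viability was read by CellTiter-Glo luminescence.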
# [14] = target: Nuclear receptor subfamily 1 group I member 2 (Homo sapiens) (UniProt O75469); assay: Dual reporter qHTS for agonist of Pregnane X Receptor (hPXR) against the NCATS DSHEA and TCM libraries: Luminescence readout (AID 1920059); note: potency is the fitted concentration of half-maximal effect
# Procedure, shortened: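 Luminescent PXR reporter read (ONE-Glo) after a CellTiter-Fluor viability read, following 24 h, 37C treatment of HepG2 cells stably carrying hPXR-Luc.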
compound,measurement,setting,value
C[C@]12CCC(=O)C=C1CC[C@@H]1[C@H]2[C@@H](O)C[C@@]2(C)[C@H]1CC[C@]2(O)C(=O)CO,Potency,[1],active: 14.8 µM
same,Potency,[2],"inconclusive: 1.32 µM [cytotoxic, full curve, poor fit]"
same,Potency,[3],"inconclusive: 33.2 µM [cytotoxic, single point]"
same,Potency,[4],inactive
same,Potency,[5],"inconclusive: 0.743 µM [rising, full curve]"
O=C(Nc1cccc(Cl)c1)Nc1ncc(CCNc2ncnc3ccsc23)s1,Potency,[1],"inconclusive: 20.9 µM [cytotoxic, partial curve, poor fit]"
same,Potency,[2],active: 0.372 µM
same,Potency,[3],active: 5.26 µM
same,Potency,[4],"inconclusive: 10.5 µM [cytotoxic, partial curve]"
same,Potency,[6],"inconclusive: 0.187 µM [cytotoxic, full curve]"
same,Potency,[5],"inconclusive: 16.6 µM [falling, partial curve]"
CC(=O)O[C@@]12CO[C@H]1C[C@H](O)[C@@]1(C)C(=O)[C@H](O)C3=C(C)[C@@H](OC(=O)C(O)[C@@H](NC(=O)OC(C)(C)C)c4ccccc4)C[C@@](O)([C@@H](OC(=O)c4ccccc4)[C@@H]21)C3(C)C (some centres undefined),Potency,[1],inactive
same,Potency,[2],inactive
same,Potency,[3],inactive
same,Potency,[7],inactive
same,Potency,[6],inactive
same,Potency,[5],"inconclusive: 0.00332 µM [falling, full curve]"
COc1cc2c(cc1OC)CN(CCc1ccc(NC(=O)c3cccc4c(=O)c5cccc(OC)c5[nH]c34)cc1)CC2,Potency,[1],inactive
same,Potency,[2],"inconclusive: 10.5 µM [cytotoxic, full curve, poor fit]"
same,Potency,[3],"inconclusive: 11.8 µM [cytotoxic, single point]"
same,Potency,[6],inactive
same,Potency,[5],"inconclusive: 9.35 µM [falling, full curve]"
C[C@]12CCC(=O)C=C1[C@@H]1CC1[C@H]1[C@H]3[C@@H]4C[C@H]4[C@@]4(CCC(=O)O4)[C@@]3(C)CC[C@H]12 (some centres undefined),Potency,[1],inactive
same,Potency,[2],"inconclusive: 0.132 µM [rising, full curve, poor fit]"
same,Potency,[7],"inconclusive: 18.7 µM [cytotoxic, partial curve]"
Cc1cn(-c2cc(NC(=O)c3ccc(C)c(Nc4nccc(-c5cccnc5)n4)c3)cc(C(F)(F)F)c2)cn1,Potency,[1],inactive
same,Potency,[8],"inconclusive: 0.59 µM [cytotoxic, full curve, poor fit]"
same,Potency,[3],inactive
same,Potency,[9],"inconclusive: 26.4 µM [cytotoxic, single point]"
same,Potency,[4],active: 14.8 µM
same,Potency,[5],inconclusive: 4.69 µM
Nc1cccc(S(=O)(=O)N2CCCN(S(=O)(=O)c3ccc4c(c3)OCCO4)CC2)c1,Potency,[1],active: 8.33 µM
same,Potency,[8],"inconclusive: 2.96 µM [cytotoxic, full curve, poor fit]"
same,Potency,[3],"inconclusive: 7.43 µM [cytotoxic, single point]"
same,Potency,[9],"inconclusive: 6.62 µM [cytotoxic, partial curve, poor fit]"
same,Potency,[4],inactive
same,Potency,[7],"inconclusive: 3.32 µM [cytotoxic, full curve, poor fit]"
same,Potency,[6],inactive
Cc1c(C(=O)NN2CCCCC2)nn(-c2ccc(Cl)cc2Cl)c1-c1ccc(Cl)cc1,Potency,[1],"inconclusive: 37.2 µM [cytotoxic, single point]"
same,Potency,[8],"inconclusive: 37.2 µM [cytotoxic, single point]"
same,Potency,[9],"inconclusive: 26.4 µM [cytotoxic, single point]"
same,Potency,[4],"inconclusive: 37.2 µM [cytotoxic, single point]"
same,Potency,[6],active: 23.5 µM
same,Potency,[5],"inconclusive: 3.72 µM [falling, full curve]"
same,Potency,[10],"inconclusive: 11.2 µM [inhibitor, single point]"
same,Potency,[11],active: 12.6 µM
Cc1oc(=O)oc1CN1CCN(c2cc3c(cc2F)c(=O)c(C(=O)O)c2n3C(C)S2)CC1 (centres undefined),Potency,[1],inactive
same,Potency,[2],"inconclusive: 0.0935 µM [cytotoxic, full curve, poor fit]"
same,Potency,[4],"inconclusive: 23.5 µM [cytotoxic, single point]"
same,Potency,[6],inactive
CC(C)(CO)[C@@H](O)C(=O)NCCC(=O)O,Potency,[1],"inconclusive: 14.8 µM [cytotoxic, partial curve, poor fit]"
same,Potency,[2],"inconclusive: 0.0093 µM [rising, full curve, poor fit]"
same,Potency,[4],inactive
same,Potency,[12],"inconclusive: 3.98 µM [inhibitor, full curve, poor fit]"
same,"activity change, negative = inhibition",[13],inactive: 15.9%
same,Potency,[14],active: 11.2 µM
Cc1cccc(CN2CCN(C(c3ccccc3)c3ccc(Cl)cc3)CC2)c1 (centres undefined),Potency,[1],"inconclusive: 20.9 µM [cytotoxic, partial curve, poor fit]"
same,Potency,[8],"inconclusive: 33.2 µM [cytotoxic, single point]"
same,Potency,[9],"inconclusive: 29.6 µM [cytotoxic, single point]"
same,Potency,[4],"inconclusive: 3.72 µM [cytotoxic, full curve, poor fit]"
same,Potency,[7],"inconclusive: 26.4 µM [cytotoxic, partial curve, poor fit]"
same,Potency,[6],"inconclusive: 11.8 µM [cytotoxic, partial curve]"
same,Potency,[5],"inconclusive: 23.5 µM [falling, single point]"
Cc1nnc(C(=O)NC(C)(C)c2nc(C(=O)NCc3ccc(F)cc3)c(O)c(=O)n2C)o1,Potency,[1],inactive
same,Potency,[2],inactive
same,Potency,[7],inactive
same,Potency,[6],"inconclusive: 0.0418 µM [rising, full curve, poor fit]"
FC(F)(F)c1ccc(C=Cc2nc(COc3ccc(CCCCn4ccnn4)cc3)co2)cc1,Potency,[1],"inconclusive: 0.0148 µM [cytotoxic, full curve]"
same,Potency,[8],"inconclusive: 0.059 µM [cytotoxic, full curve]"
same,Potency,[9],"inconclusive: 1.48 µM [cytotoxic, full curve]"
same,Potency,[4],"inconclusive: 0.166 µM [cytotoxic, full curve]"
same,Potency,[6],"inconclusive: 0.0935 µM [cytotoxic, full curve]"
same,Potency,[5],active: 0.00296 µM
CC1=C(C(=O)Nc2cc3cn[nH]c3cc2F)C(c2ccc(Cl)cc2F)N=C(c2ccnc(Cl)c2)N1 (centres undefined),Potency,[1],active: 18.7 µM
same,Potency,[8],"inconclusive: 18.7 µM [cytotoxic, partial curve]"
same,Potency,[3],active: 6.62 µM
same,Potency,[9],"inconclusive: 14.8 µM [cytotoxic, partial curve, poor fit]"
same,Potency,[4],"inconclusive: 29.6 µM [cytotoxic, single point]"
same,Potency,[5],"inconclusive: 33.2 µM [falling, single point]"

# Retrieved one by one from above (three):
compound,measurement,setting,value
CC1=C(C(=O)Nc2cc3cn[nH]c3cc2F)C(c2ccc(Cl)cc2F)N=C(c2ccnc(Cl)c2)N1 (centres undefined),Potency,[9],"inconclusive: 14.8 µM [cytotoxic, partial curve, poor fit]"
Cc1nnc(C(=O)NC(C)(C)c2nc(C(=O)NCc3ccc(F)cc3)c(O)c(=O)n2C)o1,Potency,[6],"inconclusive: 0.0418 µM [rising, full curve, poor fit]"
CC(=O)O[C@@]12CO[C@H]1C[C@H](O)[C@@]1(C)C(=O)[C@H](O)C3=C(C)[C@@H](OC(=O)C(O)[C@@H](NC(=O)OC(C)(C)C)c4ccccc4)C[C@@](O)([C@@H](OC(=O)c4ccccc4)[C@@H]21)C3(C)C (some centres undefined),Potency,[3],inactive

# From PubChem BioAssay (NCATS)
